Read-outs that look alike come from different tables or passages of the source.
System: guinea pig perilymph proteome
Conditions: for abundance ratio (IP Dex/control): IP 10 mg/kg

C[C@@H]1C[C@H]2[C@@H]3CCC4=CC(=O)C=C[C@]4(C)[C@@]3(F)[C@@H](O)C[C@]2(C)[C@@]1(O)C(=O)COP(=O)(O)O [Dex, Dexamethasone sodium phosphate]
abundance ratio (IP Dex/control) (Dickkopf WNT signaling pathway inhibitor 3 (DKK3, H0V7V7_CAVPO), perilymph 6 h): 1.97
abundance ratio (IT Dex/control) (Insulin-like growth factor binding protein 2 (IGPBP2, H0W263_CAVPO), intratympanic 0.5 mg, perilymph 6 h): 0.60
abundance ratio (IP Dex/control) (SMB domain-containing protein (Vtn, H0V077_CAVPO), perilymph 6 h): 1.57
abundance ratio (IP Dex/control) (SPARC like 1 (SPARCL1, H0UW89_CAVPO), perilymph 6 h): 3.82
abundance ratio (IP Dex/control) (VGF nerve growth factor inducible (VGF, H0VZA9_CAVPO), perilymph 6 h after dosing): 3.20
abundance ratio (IT Dex/control) (VGF nerve growth factor inducible (VGF, H0VZA9_CAVPO), intratympanic 50 μL of 10 mg/mL (0.5 mg), perilymph 6 h): 2.23
abundance ratio (IP Dex/control) (amyloid β precursor like protein 1 (APLP1, H0V8E0_CAVPO), perilymph 6 h): 2.44
abundance ratio (IP Dex/control) (annexin (ANXA2, H0V7P8_CAVPO), perilymph 6 h): 0.59
abundance ratio (IP Dex/control) (complement C5 (C5, H0UY41_CAVPO), perilymph 6 h): 3.56
abundance ratio (IP Dex/control) (elongation factor 1-α (H0W9I8_CAVPO), perilymph 6 h): 0.38
abundance ratio (IP Dex/control) (enolase 3 (ENO3, H0VN20_CAVPO), perilymph 6 h): 0.09
abundance ratio (IP Dex/control) (fructose-bisphosphate aldolase (ALDOC, H0W3T8_CAVPO), perilymph 6 h): 0.26
abundance ratio (IP Dex/control) (heat shock protein family A (Hsp80) member 5 (Hspa5, H0VLM3_CAVPO), perilymph 6 h): 0.67
abundance ratio (IP Dex/control) (neural EGFL-like 2 (NELL2, H0UV55_CAVPO), perilymph 6 h): 1.78
abundance ratio (IP Dex/control) (neuronal cell adhesion molecule (NRCAM, H0V7Q6_CAVPO), perilymph 6 h): 3.34
abundance ratio (IP Dex/control) (tyrosine 3-monooxygenase/tryptophan 5-monooxygenase activation protein γ (YWHAG, A0A286XP66_CAVPO), perilymph 6 h): 0.42
abundance ratio (IT Dex/control) (tyrosine 3-monooxygenase/tryptophan 5-monooxygenase activation protein γ (YWHAG, A0A286XP66_CAVPO), intratympanic 0.5 mg, perilymph 6 h): 0.41

From patent US20220032023A1, “ULTRA-SHARP MICRONEEDLE” (THE TRUSTEES OF COLUMBIA UNIVERSITY IN THE CITY OF NEW YORK, priority 2019, published 2022)
